Measured data: PubChem BioAssay AID1159592 (NIAID, 2016)

- Test: 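Which core TLR components make p65 move nuclear in R848-treated mouse macrophages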
- Cell system: RAW264.7 macrophages from mouse bearing reporters for p65 (GFP) and the Tnf promoter (mCherry)
- Reagents: single siRNA against mouse genes
- Time to read-out: 48 to 72 hours after siRNA transfection
- Treatment: R848 TLR ligand for 40 minutes before fixation; dose not given
- Measurement: 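Nuclear over cytoplasmic GFP-p65 signal imaged 40 minutes after R848, plate-normalised by median and MAD, given as robust z versus negative controls, mean of replicates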
- Reading the numbers: NF-kB translocation z-score: higher = more p65 moved into the nucleus than in negative-control wells
- Hit rule: 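a call of active needs an averaged z beyond 1.5 in either direction; tiers of absolute z at 1, 1.5, 2 and 2.5 are also set by the depositor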
- Meaning of the calls: active = strong change, either direction; inactive = little change
This is one part, drawn at random, of 756 reagents. Over the whole deposit, 147 (19%) are marked active. 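Active covers both loss and gain of p65 entry; negative z means weaker NF-kB activation, positive means more nuclear p65.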 Unmarked entries are inactive. Reagents against one gene are numbered here. Not given: the amount of reagent.

With knock-down of Elf4 (GeneID 56501) #1 the results were NF-kB translocation z-score, replicate mean 0.143.
Against Elf4 (GeneID 56501) #2 the deposit lists NF-kB translocation z-score, replicate mean -1.38.
Against Elf4 (GeneID 56501) #3, the values are NF-kB translocation z-score, replicate mean -0.645.
Silencing of Elf4 (GeneID 56501) #4 came out at: NF-kB translocation z-score, replicate mean -0.626.
With knock-down of Elf4 (GeneID 56501) #5, the screen gave NF-kB translocation z-score, replicate mean -1.56 (active).
Elf4 (GeneID 56501) #6 showed NF-kB translocation z-score, replicate mean -0.328.
Against Ripk3 (GeneID 56532) #1, the entry reads NF-kB translocation z-score, replicate mean 0.031.
After knock-down of Ripk3 (GeneID 56532) #2, the record shows NF-kB translocation z-score, replicate mean 0.305.
Against Ripk3 (GeneID 56532) #3, the values are NF-kB translocation z-score, replicate mean -1.05.
After knock-down of Ripk3 (GeneID 56532) #4 the results were NF-kB translocation z-score, replicate mean -0.912.
Ripk3 (GeneID 56532) #5 scored NF-kB translocation z-score, replicate mean 0.201.
Against Ripk3 (GeneID 56532) #6, the values are NF-kB translocation z-score, replicate mean -2.62 (active).
Knock-down of Mapk14 (GeneID 26416) #1 gave: NF-kB translocation z-score, replicate mean 1.45.
Mapk14 (GeneID 26416) #2 showed NF-kB translocation z-score, replicate mean 0.299.
Depletion of Mapk14 (GeneID 26416) #3 resulted in: NF-kB translocation z-score, replicate mean 0.21.
With knock-down of Mapk14 (GeneID 26416) #4 the results were NF-kB translocation z-score, replicate mean -0.895.
Against Mapk14 (GeneID 26416) #5, the values are NF-kB translocation z-score, replicate mean -1.67 (active).
Knock-down of Mapk14 (GeneID 26416) #6 came out at: NF-kB translocation z-score, replicate mean -0.795.
Il6 (GeneID 16193) #1 scored NF-kB translocation z-score, replicate mean 0.075.
Depletion of Il6 (GeneID 16193) #2 came out at: NF-kB translocation z-score, replicate mean -0.484.
Il6 (GeneID 16193) #3 scored NF-kB translocation z-score, replicate mean -0.452.
For Il6 (GeneID 16193) #4 the deposit lists NF-kB translocation z-score, replicate mean -1.33.
Depletion of Il6 (GeneID 16193) #5 resulted in: NF-kB translocation z-score, replicate mean 0.171.
After knock-down of Il6 (GeneID 16193) #6 the results were NF-kB translocation z-score, replicate mean 0.206.

Reformatted: results already given.
Target gene	reagent no.	NF-kB translocation z-score, replicate mean
Ripk3 (GeneID 56532)	2	0.305
Ripk3 (GeneID 56532)	3	-1.05
Ripk3 (GeneID 56532)	4	-0.912
Ripk3 (GeneID 56532)	5	0.201
Ripk3 (GeneID 56532)	6	-2.62 (active)

Next records follow:
With knock-down of Cd14 (GeneID 12475) #1 the results were NF-kB translocation z-score, replicate mean -0.712.
Cd14 (GeneID 12475) #2 showed NF-kB translocation z-score, replicate mean -2.52 (active).
After knock-down of Cd14 (GeneID 12475) #3, the screen gave NF-kB translocation z-score, replicate mean -2.47 (active).
With knock-down of Cd14 (GeneID 12475) #4, the record shows NF-kB translocation z-score, replicate mean -2.72 (active).
Knock-down of Cd14 (GeneID 12475) #5 gave: NF-kB translocation z-score, replicate mean -0.508.
Cd14 (GeneID 12475) #6 showed NF-kB translocation z-score, replicate mean 0.478.
After knock-down of Tnfaip3 (GeneID 21929) #1, the record shows NF-kB translocation z-score, replicate mean 0.849.
For Tnfaip3 (GeneID 21929) #2, the entry reads NF-kB translocation z-score, replicate mean -1.09.
Depletion of Tnfaip3 (GeneID 21929) #3 came out at: NF-kB translocation z-score, replicate mean 2.43 (active).
Tnfaip3 (GeneID 21929) #4 scored NF-kB translocation z-score, replicate mean 1.58 (active).
Tnfaip3 (GeneID 21929) #5 scored NF-kB translocation z-score, replicate mean 0.64.
With knock-down of Tnfaip3 (GeneID 21929) #6, the record shows NF-kB translocation z-score, replicate mean 1.21.
Depletion of Map3k8 (GeneID 26410) #1 resulted in: NF-kB translocation z-score, replicate mean -0.4.
Depletion of Map3k8 (GeneID 26410) #2 came out at: NF-kB translocation z-score, replicate mean 0.122.
Knock-down of Map3k8 (GeneID 26410) #3 resulted in: NF-kB translocation z-score, replicate mean -0.225.
Depletion of Map3k8 (GeneID 26410) #4 came out at: NF-kB translocation z-score, replicate mean 0.101.
Knock-down of Map3k8 (GeneID 26410) #5 came out at: NF-kB translocation z-score, replicate mean 0.711.
Against Map3k8 (GeneID 26410) #6 the deposit lists NF-kB translocation z-score, replicate mean 0.273.
Silencing of Ly86 (GeneID 17084) #1 came out at: NF-kB translocation z-score, replicate mean 0.448.
For Ly86 (GeneID 17084) #2, the values are NF-kB translocation z-score, replicate mean -1.87 (active).
Depletion of Ly86 (GeneID 17084) #3 gave: NF-kB translocation z-score, replicate mean -0.13.
Depletion of Ly86 (GeneID 17084) #4 gave: NF-kB translocation z-score, replicate mean -1.19.
For Ly86 (GeneID 17084) #5, the entry reads NF-kB translocation z-score, replicate mean 1.14.
Silencing of Ly86 (GeneID 17084) #6 gave: NF-kB translocation z-score, replicate mean 0.67.
Myd88 (GeneID 17874) #1 showed NF-kB translocation z-score, replicate mean -2.36 (active).
Myd88 (GeneID 17874) #2 gave NF-kB translocation z-score, replicate mean -3.87 (active).
Silencing of Myd88 (GeneID 17874) #3 resulted in: NF-kB translocation z-score, replicate mean -3.34 (active).
Myd88 (GeneID 17874) #4 gave NF-kB translocation z-score, replicate mean -4.16 (active).
Silencing of Myd88 (GeneID 17874) #5 resulted in: NF-kB translocation z-score, replicate mean -4.44 (active).
Depletion of Myd88 (GeneID 17874) #6 gave: NF-kB translocation z-score, replicate mean -0.616.
Silencing of Tirap (GeneID 117149) #1 came out at: NF-kB translocation z-score, replicate mean 0.29.
Silencing of Tirap (GeneID 117149) #2 resulted in: NF-kB translocation z-score, replicate mean 0.222.
After knock-down of Tirap (GeneID 117149) #3, the screen gave NF-kB translocation z-score, replicate mean 0.504.
For Tirap (GeneID 117149) #4 the deposit lists NF-kB translocation z-score, replicate mean 0.149.
Tirap (GeneID 117149) #5 scored NF-kB translocation z-score, replicate mean 0.0137.
With knock-down of Tirap (GeneID 117149) #6 the results were NF-kB translocation z-score, replicate mean -0.06.
